Measurements: patent publication US20160074390A1, “HUMAN DOSING OF PHOSPHATASE INHIBITOR” (Lixte Biotechnology, Inc., priority 2014, published 2016)
Where two headings read alike, the source gives them in different places. At least one compound was matched to its structure with a doubt left.

What was measured:
[1] = test system: protein phosphatase 2A (PP2A); experiment: Inhibition of PP2A versus PP1; format: biochemical; conditions: PP2A versus protein phosphatase 1 (PP1)
[2] = test system: advanced solid tumors; experiment: Phase I Part 1 single agent LB-100: tumor response (RECIST 1.1); format: in vivo, human
From the text: Two dose regimens are explored.
Although response is not the primary endpoint of this study, patients with measurable disease will be assessed at baseline and during the study by standard criteria. Patients should be reevaluated after receiving 2 cycles of study therapy and then after every 2 cycles thereafter. In the event objective response (PR or CR) is noted, changes in tumor measurements must be confirmed by repeat assessments that should be performed at least 4 weeks after the criteria for response are first met.
Response and progression will be evaluated in this study using the international criteria (version 1.1) proposed by the Response Evaluation Criteria in Solid Tumors (RECIST) Committee [Eur J Cancer. 45 (2009) 228-247]. Changes in only the largest diameter (unidimensional measurement) of the tumor lesions are used in the RECIST 1.1 guidelines. Note: Lesions are either measurable or non-measurable using the criteria provided below.
• Complete Response (CR): Disappearance of all target lesions.
The patient's best overall response assignment will depend on findings of both target and non-target disease and will also take into consideration the appearance of new lesions. It is assumed that at each protocol-specified time point, a response assessment occurs. Table provides a summary of the overall response status calculation at each time point for patients who have measurable disease at baseline.
In the case of SD, follow-up measurements must have met the SD criteria at least once after study entry at a minimum interval at 5 weeks.

[3] = test system: TNBC cell lines; experiment: Cytotoxicity against TNBC cells; format: cell-based; conditions: present-tense example
Description: LB-100 inhibits PP2A activity and is cytotoxic to TNBC cells. LB-100 synergizes with chemotherapeutic drugs to enhance cytotoxicity against TNBC cells. LB-100 also enhances the effects of chemotherapy in TNBC xenografts. LB-100 chemosensitizes doxorubicin and cisplatin to TNBC cells and/or has a synergistic cytotoxic effect with doxorubicin and/or cisplatin against TNBC cells.
Both doxorubicin (0.2 μg/ml) and cisplatin (2 μg/ml) in combination with LB-100 are cytotoxic to TNBC cell lines. The addition of LB-100 sensitizes TNBC cells to doxorubicin and cisplatin. TNBC cell lines include HCC1599, HCC1937, HCC1599, MDA-MB-468, HCC38, HCC70, HCC1806, HCC1187, DU4475, BT-549, Hs-578T, MDA-MB-231, MDA-MB-436, MDA-MB-157, MDA-MB-453, BT-20, and HCC1395.

[4] = test system: TNBC tumors; experiment: TNBC tumor growth in mice; format: in vivo; conditions: present-tense example
[5] = test system: bladder cancer, cervical cancer, malignant mesothelioma, non-small cell lung cancer, stomach cancer and ovarian cancer cell lines; experiment: Cytotoxicity against other cancer cell lines; format: cell-based; conditions: present-tense example
[6] = test system: bladder cancer, cervical cancer, malignant mesothelioma, non-small cell lung cancer, stomach cancer and ovarian cancer tumors; experiment: Growth of other cancer tumors in mice; format: in vivo; conditions: present-tense example
[7] = test system: HeLa cells, OS-17, MKN28, MKN45, MGC803, and SGC7901 cells; experiment: Growth of Mad2-overexpressing cell lines in vitro; format: cell-based, human; conditions: present-tense example
Description: Compound LB-100 inhibits PP2A phosphatase in cancer cells which in turn induces Mad-2 phosphorylation while suppressing Mad-2 protein levels. In order to characterize the effects of LB-100 on cancers overexpressing Mad2, tumor cell lines carrying Mad2-overexpressing mutations are tested. LB-100 inhibits the growth of the cancer cells in in vitro assays. […] Exposure to LB-100 reduces the expression of Mad-2 in the cells.
Mad2-overexpressing HeLa cells (HeLa Mad-2 O/E), osteosarcoma human cells (OS-17) and gastric cell lines (MKN28, MKN45, MGC803, and SGC7901) express high levels of Mad2 (Yu, L. et al. 2010). LB-100 inhibits the growth of the HeLa cells, OS-17, MKN28, MKN45, MGC803, and SGC7901 cells in vitro. […] Exposure to LB-100 reduces the expression of Mad-2 in all cell lines.

[8] = test system: Mad2-overexpressing cancer cells; experiment: Xenografts of Mad2-overexpressing cancer cells; format: in vivo, mice; conditions: i.p.; present-tense example
[9] = test system: human cancer xenografts; experiment: Antitumor activity in xenografts; format: in vivo; conditions: racemic LB-100 alone, diverse cell types of human cancer
[10] = test system: PP2A; conditions: tumors overexpressing N-CoR, e.g. glioblastoma multiforme (GBM); US 2009/0018142 A9; cited from earlier work
[11] = test system: GBM cell; conditions: US 2009/0018142 A9; cited from earlier work
[12] = test system: PP2A; conditions: panel of cancer cells; U.S. Pat. No. 7,998,957 B2, 8,227,473 B2; cited from earlier work
[13] = test system: breast cancer cells, large cell lung cancer cells, lung adenocarcinoma cells, small cell lung cancer cells, stomach cancer cells, liver cancer cells, ovarian …; conditions: panel of cancer cells; U.S. Pat. No. 7,998,957 B2, 8,227,473 B2; cited from earlier work
[14] = test system: glioblastoma multiforme (U87); conditions: U87 in mice; US 2009/0035292 A1, US 2010/0029640 A1; cited from earlier work
[15] = test system: medulloblastoma (DAOY); conditions: DAOY in mice; US 2009/0035292 A1, US 2010/0029640 A1; cited from earlier work
[16] = test system: mammalian tissue that has suffered from an ischemia; conditions: cardiac, brain, endothelial tissue; WO 2014/005080 A1; cited from earlier work
[17] = test system: glucocerebrosidase (GBA); conditions: Gaucher's disease type 1 or type 3 cells; cited from earlier work
[18] = test system: Akt; conditions: Lu et al. 2009; cited from earlier work
[19] = test system: human cancer xenografts; conditions: combination, leading to regression of human cancer xenografts; cited from earlier work
[20] = cisplatin 3 mg/kg + LB-100 2.5 mg/kg
[21] = doxorubicin 1.5 mg/kg + LB-100 2 mg/kg qod

For CN1CCN(C(=O)C2C(C(=O)O)[C@H]3CC[C@@H]2O3)CC1 (mixture of isomers) [LB-100, 3-(4methylpiperazine-carbonyl)-7-oxalobicyclo[2.2.1]heptane-2-carboxylic acid], the “inhibits PP2A more efficiently than PP1” value [1] was “about 80 fold”, the “Patient Status” value ([2]; Patient 1, Uterine, 0.25 mg/m^2) was “Progressive disease” and the “Patient Status” value ([2]; Patient 2, Sarcoma, 0.25 mg/m^2) was “Progressive disease”. For the same molecule, the “Patient Status” value ([2]; Patient 3, Duodenal, 0.25 mg/m^2) was “Progressive disease”, the “Patient Status” value ([2]; Patient 4, Appendiceal, 0.5 mg/m^2) was “Progressive disease” and the “Patient Status” value ([2]; Patient 5, NSCLC, 0.5 mg/m^2) was “Progressive disease after”. The “Patient Status” value ([2]; Patient 6, Colon, 0.5 mg/m^2) was “clinical deterioration”, the “Patient Status” value ([2]; Patient 8, Colon, 0.83 mg/m^2) was “progressive disease” and the “Patient Status, best response” value ([2]; Patient 9, Atypical carcinoid of the lung, 0.83 mg/m^2) was “stable disease”. The “Patient Status, best response” value ([2]; Patient 10, Pancreas, 0.83 mg/m^2) was “stable disease”, the “Patient Status” value ([2]; Patient 11, Colon, 1.25 mg/m^2) was 2014. Progressive and the “Patient Status, best response” value ([2]; Patient 12, Breast, 1.25 mg/m^2) was “stable disease”. For the same molecule, the “Patient Status, best response” value ([2]; Patient 13, Testicular, 1.25 mg/m^2) was “stable disease”, the “Patient Status, best response” value ([2]; Patient 14, Ovarian, 1.75 mg/m^2) was “stable disease” and the “Patient Status” value ([2]; Patient 16, Colon, 1.75 mg/m^2) was “progressive disease”. The “Patient Status” value ([2]; Patient 17, Thymoma, 1.75 mg/m^2) was “treatment, stable disease”, the “Patient Status” value ([2]; Patient 19, Vulvar, 2.33 mg/m^2) was “progressive disease” and the response observed ([2]; breast, ovarian, carcinoid and testicular cancer patients) was “Stable disease”. The effect on cancer ([2]; pancreatic, testicular and breast cancer, 0.83, 1.25 or 1.75 mg/m^2) was “stabilized the cancer”, the progression of disease ([2]; patients 9, 10, 12-14 and 16-17) was “no progression of disease” and the “sensitization of TNBC cells to cisplatin” value ([3]; cisplatin 2 μg/ml) was “sensitizes”. For the same molecule, the “sensitization of TNBC cells to doxorubicin” value ([3]; doxorubicin 0.2 μg/ml) was “sensitizes”, the “growth of TNBC tumors” value [4, 20] was “significantly slows the growth” and the “growth of TNBC tumors” value [4, 21] was “significantly slows the growth”. The “sensitization of cancer cells to cisplatin” value ([5]; cisplatin 2 μg/ml) was “sensitizes”, the “sensitization of cancer cells to doxorubicin” value ([5]; doxorubicin 0.2 μg/ml) was “sensitizes” and the growth of tumors [6, 20] was “significantly slows the growth”. The growth of tumors [6, 21] was “significantly slows the growth”, the “growth of cells in vitro” value ([7]; Mad2-overexpressing cell lines) was “inhibits” and the “expression of Mad-2” value ([7]; all cell lines) was “reduces”. The “tumor burden relative to control group” value [8] was “significantly reduces tumor burden”, the “single agent antitumor activity in vivo” value [9] was “modest single agent antitumor activity” and the PP2A activity [10] was “inhibited”. The GBM cell growth [11] was “inhibited”, the PP2A activity [12] was “inhibited” and the cell growth [13] was “inhibited”. For the same molecule, the tumor growth [14] was “inhibited”, the tumor growth [15] was “inhibited” and the reperfusion injury [16] was “reduces reperfusion injury”. The “GBA levels versus untreated cells” value [17] was “significantly higher”, the “half-life of GBA” value [17] was “significantly increased” and the “phosphorylation of Akt” value [18] was “increased”. The “single agent activity of temozolomide, doxorubicin or docetaxel” value [19] was “potentiates”.
